# Laboratory results taken from PubChem BioAssay AID1671190 (National Center for Advancing Translational Sciences (NCATS), 2021).
# By UniProt entry, the sequences of proteins in these tests, tags left out. Where a name states a change or a piece, a line headed by the entry shows the natural chain unless it says otherwise.
# UniProt P18054: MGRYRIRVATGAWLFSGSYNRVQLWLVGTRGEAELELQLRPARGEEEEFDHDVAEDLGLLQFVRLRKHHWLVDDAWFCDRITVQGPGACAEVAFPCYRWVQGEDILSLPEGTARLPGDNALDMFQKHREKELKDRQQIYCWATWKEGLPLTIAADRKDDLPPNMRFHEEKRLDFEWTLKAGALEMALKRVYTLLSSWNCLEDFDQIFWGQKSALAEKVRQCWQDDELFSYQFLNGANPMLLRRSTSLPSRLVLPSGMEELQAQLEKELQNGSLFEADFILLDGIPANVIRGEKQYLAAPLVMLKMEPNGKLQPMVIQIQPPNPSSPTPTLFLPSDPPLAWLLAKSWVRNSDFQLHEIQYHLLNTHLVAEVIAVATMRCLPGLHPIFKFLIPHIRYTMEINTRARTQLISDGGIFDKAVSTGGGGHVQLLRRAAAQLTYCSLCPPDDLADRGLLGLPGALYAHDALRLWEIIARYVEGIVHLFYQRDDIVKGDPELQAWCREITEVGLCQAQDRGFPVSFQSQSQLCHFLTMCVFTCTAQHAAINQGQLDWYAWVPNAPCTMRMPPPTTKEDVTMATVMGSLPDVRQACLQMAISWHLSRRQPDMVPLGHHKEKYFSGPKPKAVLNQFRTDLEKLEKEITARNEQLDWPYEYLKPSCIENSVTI
# “And” between values parts separate entries of the source, which are not always exact repeats. Equal values may be shown once. In all, about 580,000 compounds went through this assay and about 6,100 (1.1%) were called active. The shares of active, inactive and inconclusive entries below differ from those in the screen. Calls follow the shape of the dose curve; as a rule, active = well fitted inhibition curve with a large enough effect; inconclusive = small, poorly fitted or top-dose-only effect, or another doubt; inactive = no such curve, though single readings can be large or run the other way. Potencies of inconclusive entries are doubtful fits and often do not repeat.
# Biological target: Polyunsaturated fatty acid lipoxygenase ALOX12 (Homo sapiens) (UniProt P18054)
# Experiment: Primary qHTS assay for inhibitors of human arachidonate 12S-lipoxygenase (ALOX12): Round 2
# Conditions: purified 12hLO, xylenol orange hydroperoxide absorbance; activity change, negative = inhibition: at 108 µM (top of the series)
# How it was run: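 Purified human 12hLO (150 nM final) in 25 mM Hepes, 0.01% Triton X-100, pH 7.0 was preincubated 15 min at room temperature with compound. Then 40 uM arachidonic acid was added, 30 min. Hydroperoxide was read by Fe-XO absorbance ratio 573/405 nm.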
# % is scaled to controls: 0 for no effect and ±100 for the full control effect; potency is read from the fitted curve at half-maximal effect.
Structure (SMILES),Potency,"activity change, negative = inhibition"
NC(=O)CSP(=O)(c1ccccc1)c1ccccc1,inactive,
CCC(=Nc1cc(OC)ccc1OC)c1c(O)[nH]c(=O)[nH]c1=O,"inconclusive: 79.4 µM [inhibitor, single point]",
CC1=Nc2ccccc2/C1=C/c1c(O)n(C)c(=O)[nH]c1=O,"inconclusive: 3.55 µM [inhibitor, full curve, poor fit]",
CCOc1ccccc1CN1CCN(c2cccc(C)c2C)CC1,inactive,
Cc1ccc(CN2CCN(Cc3ccccc3F)CC2)cc1,"inconclusive: 0.282 µM [inhibitor, full curve, poor fit]",
Cc1ccc2nc(N3CCN(C)CC3)[nH]c2c1,"inconclusive: 15.8 µM [inhibitor, partial curve, poor fit]",
c1cc2n(c1)-c1c(ccc3c1OCO3)CNC2c1ccc2c(c1)OCO2 (stereo not drawn),"inconclusive: 31.6 µM [inhibitor, single point]",
C=C(C)[C@H]1CN[C@H](C(=O)O)[C@H]1CC(=O)O,"inconclusive: 1.44 µM [inhibitor, full curve] and inconclusive: 1.12 µM [inhibitor, full curve, poor fit]",
CC(C)(C)CN1CCC2(COc3ccncc3S(=O)(=O)N2)C1 (stereo not drawn),,inactive: 6.93% [at 6.33 µM]
COC(=O)C1=C(c2ccc(F)cc2OCc2ccccc2)C[C@@H]2CC[C@H]1N2C(=O)NCCOc1ccccc1Cl,inactive,
O=C1CC2OCC=C3CN4CCC56c7ccccc7N1C5C2C3CC46 (stereo not drawn),"inconclusive: 14.1 µM [inhibitor, partial curve, poor fit]",
CCOP(=O)(OCC)OCC,inactive,
Clc1cc(Cl)cc(-c2ccc(CNC3CN4CCC3CC4)o2)c1 (stereo not drawn),"inconclusive: 44.7 µM [inhibitor, partial curve, poor fit]",
c1ccc2sc(C3CCCNC3)nc2c1 (stereo not drawn),"inconclusive: 50.1 µM [inhibitor, partial curve, poor fit]",
N#CCCn1cc(C(=O)Nc2ccc(F)cc2)c(-c2ccccc2)n1,inactive,
CSc1ccc(CN2CCN(C(=O)COc3ccc(C)cc3)CC2)cc1,"inconclusive: 631 nM [inhibitor, full curve] and inconclusive: 25.1 µM [inhibitor, partial curve, poor fit]",
O=C1NCN(c2ccccc2)C12CCN(C(c1cccs1)c1nnnn1-c1ccc3c(c1)OCCO3)CC2 (stereo not drawn),"inconclusive: 89.1 µM [inhibitor, single point]",
COc1cc2c(cc1OCC1CC1)NC(=O)C21CCN(C(=O)c2cccc(O)c2)CC1,inactive,
N#Cc1ccc(NC(=O)CN2CCc3sccc3C2c2cccs2)cc1Cl (stereo not drawn),inactive,
O=C1Nc2ccccc2C12CCN(CC1CCCCC1)CC2,"inconclusive: 56.2 µM [inhibitor, full curve, poor fit]",
Cn1cc(CNCC2(CO)C[C@@H](O)[C@@H](O)C2)c2ccccc21 (stereo partly drawn),"inconclusive: 63.1 µM [inhibitor, partial curve, poor fit] and inconclusive: 17.8 µM [inhibitor, partial curve, poor fit]",

Structure (SMILES),Potency,"activity change, negative = inhibition"
C[C@H](N)Cc1cnc[nH]1,"inconclusive: 5.62 µM [inhibitor, full curve, poor fit] and inconclusive: 2.82 µM [inhibitor, partial curve, poor fit]",
CCc1ccccc1NC(=O)c1cccn(Cc2ccccc2F)c1=O,inactive,
O=C(c1ccccc1)N1C[C@@H]2C[C@H](C1)c1ccc(-c3cccc(C(F)(F)F)c3)c(=O)n1C2,inactive,
COC(=O)[C@@]1(Cc2ccc(F)cc2)[C@H]2c3cc(C(=O)N(C)C)[nH]c3C[C@H]2CN1C(=O)c1ccccc1,inactive,
Cc1cc(N2CCNC[C@@H]2C)ccc1N1CCN[C@@H](C)C1,active: 44.7 µM,
CSc1ccc(-c2ccc(=O)n3c2[C@@H]2C[C@@H](CN(S(C)(=O)=O)C2)C3)cc1,"inconclusive: 50.1 µM [inhibitor, full curve]",
CC(C(=O)Nc1ccc(Br)cc1C(=O)c1ccccc1)N1CCOCC1 (stereo not drawn),inactive,
C=CCN1C(=O)NC(=O)/C(=C/c2ccc(OC)c(CSc3ccccn3)c2)C1=O,"inconclusive: 15.8 µM [inhibitor, partial curve, poor fit]",
COc1nc2ccccc2nc1N1CC1,"inconclusive: 141 µM [inhibitor, single point]",
CCC(=O)c1ccc(OC)c(OC)c1,"inconclusive: 63.1 µM [inhibitor, partial curve, poor fit]",
COc1cc(CC(=O)N2C[C@H]3C[C@@H](C2)c2cccc(=O)n2C3)cc(OC)c1OC,inactive,
CCOc1ccccc1N1C(=O)NC(=O)/C(=C/c2ccc3c4c(cccc24)CC3)C1=O,inactive,
Cn1c(O)c(C(=Nc2ccc(F)cc2)c2ccccc2)c(=O)n(C)c1=O,"inconclusive: 44.7 µM [inhibitor, partial curve, poor fit]",
O=C1c2cccc3cccc(c23)C(=O)N1/N=C/c1c(O)n(-c2ccccc2)c(=O)[nH]c1=O,"inconclusive: 100 µM [inhibitor, single point]",
COC(=O)C1=C(c2cc3ccccc3o2)C[C@@H]2CC[C@H]1N2C(=O)NCCNC(C)=O,"inconclusive: 17.8 µM [inhibitor, partial curve, poor fit]",
O=c1ccc(-c2ccccc2)c2n1C[C@H]1C[C@@H]2CN(Cc2ccc(CO)o2)C1,inactive,
c1ccc(CC2CN3CCCC3CN2)cc1 (stereo not drawn),"inconclusive: 5.62 µM [inhibitor, full curve, poor fit]",
C[N+](C)(C)CC1CCCC1=O (stereo not drawn),"inconclusive: 39.8 µM [inhibitor, partial curve, poor fit]",
CSCC(=O)Nc1ccc(=O)n2c1[C@@H]1C[C@@H](CN(C(=O)COc3ccccc3)C1)C2,"inconclusive: 39.8 µM [inhibitor, full curve]",
COc1cc2c(cc1CCc1ccccc1)N(C(=O)c1c[nH]c3ccccc13)CC21CCN(C(C)=O)CC1,"inconclusive: 22.4 µM [inhibitor, full curve]",
CC(Cc1ccccc1)NCC(=O)Nc1cc(N(C)C)nc2ccccc12 (stereo not drawn),inactive,

# In another format: entries from further up.
Structure (SMILES)	Potency	activity change, negative = inhibition
CSc1ccc(-c2ccc(=O)n3c2[C@@H]2C[C@@H](CN(S(C)(=O)=O)C2)C3)cc1	inconclusive: 50.1 µM [inhibitor, full curve]	
CC(C(=O)Nc1ccc(Br)cc1C(=O)c1ccccc1)N1CCOCC1 (stereo not drawn)	inactive	

# Remaining list, next part.

Structure (SMILES),Potency,"activity change, negative = inhibition"
Cc1c2cnn(CC(=O)N3CCC4(CC3)OCCO4)c(=O)c2c(C)n1Cc1ccc(F)cc1,inactive,
CNCC(O)c1cc(F)c(OCc2ccccc2)c(OCc2ccccc2)c1F (stereo not drawn),"inconclusive: 56.2 µM [inhibitor, partial curve, poor fit]",
Cc1cc2c(c(=O)o1)C1(C(=O)Nc3ccccc31)C(C(=O)OCc1ccccc1)=C(N)O2 (stereo not drawn),"inconclusive: 1.58 µM [inhibitor, full curve, poor fit]",
CC/C(=N\Nc1cccc2ccccc12)c1c(O)[nH]c(=O)[nH]c1=O,"inconclusive: 2.82 µM [inhibitor, full curve, poor fit]",
CCOc1ccc(C(=O)OC2CC3CCC(C2)N3C)cc1 (stereo not drawn),inactive,
CCOC(=O)COc1ccc(/C=C2\C(=O)NC(=S)N(c3ccc(OC)cc3)C2=O)cc1OC,inactive,
O=C1CC(=O)N(c2ccc(Cl)cc2)C(=O)N1,"inconclusive: 44.7 µM [inhibitor, partial curve, poor fit]",
O=C(NCc1ccccc1)[C@H]1CN2CCC1C[C@@H]2Cn1cc(CCO)nn1 (stereo partly drawn),inactive,
Cc1[nH]c2ccccc2c1CCNCc1cccnc1,"inconclusive: 44.7 µM [inhibitor, partial curve, poor fit]",
CCc1ccc(N2C(=O)NC(=O)C(Cc3ccc(OC)cc3OC)C2=O)cc1 (stereo not drawn),"inconclusive: 15.8 µM [inhibitor, partial curve, poor fit]",
O=C1NC(=O)N(Cc2ccccc2)C(=O)C1Cc1ccccc1 (stereo not drawn),"inconclusive: 126 µM [inhibitor, single point]",
Cc1cc(C)cc(-n2c(C)cc(/C=C3\C(=O)NC(=O)N(C)C3=O)c2C)c1,inactive,
CNC(C)c1ccc2ccccc2c1 (stereo not drawn),"inconclusive: 15.8 µM [inhibitor, full curve, poor fit]",
C[C@@H]1O[C@@H](O[C@H]2CC[C@@H](O[C@H]3[C@H](O)C[C@H](c4ccc5c(c4O)C(=O)C4=C(C5=O)[C@@]5(O)C(=O)C[C@](C)(O[C@H]6CC[C@H](O[C@H]7C=CC(=O)[C@H](C)O7)[C@H](C)O6)C[C@@]5(O)C=C4)O[C@@H]3C)O[C@H]2C)C=CC1=O,inactive,
c1ccc(P(c2ccccc2)c2ccccn2)cc1,"inconclusive: 31.6 µM [inhibitor, single point]",
Cc1[nH]c2c(C)cccc2c1C(O)CN1CCC(C)CC1 (stereo not drawn),"inconclusive: 44.7 µM [inhibitor, partial curve, poor fit]",
COCCNC(=O)Cn1cc(C=C2C(=O)NC(=O)NC2=O)c2ccccc21,"inconclusive: 44.7 µM [inhibitor, partial curve, poor fit]",
Cc1cc(N2CCNC[C@H]2C)ccc1N1CC[C@@H](O)C1,"inconclusive: 50.1 µM [inhibitor, partial curve, poor fit]",
N#CC(C#N)=Cc1ccc(C=C(C#N)C#N)cc1,"inconclusive: 31.6 µM [inhibitor, partial curve]",
COc1ccc2c(c1)CN(C)CC2c1ccc(Cl)c(Cl)c1 (stereo not drawn),"inconclusive: 3.43 µM [inhibitor, partial curve, poor fit]",
CC1=NN(c2ccccc2)C(=O)/C1=C/c1c(O)[nH]c(=O)[nH]c1=O,"inconclusive: 0.224 µM [inhibitor, full curve, poor fit]",

# Quoted at random: 2 entries already listed, in no set order.
Structure (SMILES),Potency,"activity change, negative = inhibition"
c1ccc(CC2CN3CCCC3CN2)cc1 (stereo not drawn),"inconclusive: 5.62 µM [inhibitor, full curve, poor fit]",
Cc1cc2c(c(=O)o1)C1(C(=O)Nc3ccccc31)C(C(=O)OCc1ccccc1)=C(N)O2 (stereo not drawn),"inconclusive: 1.58 µM [inhibitor, full curve, poor fit]",
